Experimental data from article doi:10.1101/2020.08.03.235200.
Like-named read-outs stand apart in the source and are kept apart here. No constants are given. Whether binding was seen depends on the method and setting. Binding seen in cells or lysates may run through a third protein. Some binding calls cover weakened binding; strength is not graded here. For part of these data: Sequences can lack the tags named with a protein.

What was measured:
[1] = molecular target: T1, MRAP2 wild type with C-terminal LgBiT or C-terminal SmBiT, Q96G30; assay: split reporter; conditions: remark: other sources report otherwise
T1 chain: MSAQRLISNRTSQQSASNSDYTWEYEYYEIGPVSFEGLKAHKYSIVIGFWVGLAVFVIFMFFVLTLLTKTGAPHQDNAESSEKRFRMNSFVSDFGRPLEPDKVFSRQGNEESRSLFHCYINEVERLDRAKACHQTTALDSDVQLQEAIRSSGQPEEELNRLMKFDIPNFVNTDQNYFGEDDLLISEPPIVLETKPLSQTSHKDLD

[2] = molecular target: MRAP2 Δ38-44 with C-terminal LgBiT or C-terminal SmBiT (UniProt Q96G30); assay: split reporter
[3] = molecular target: MRAP2 G48L+G52L with C-terminal LgBiT or C-terminal SmBiT (UniProt Q96G30); assay: split reporter
[4] = molecular target: MRAP2 lacking the polybasic motif (MRAP2 Δ38-44), N-terminally FLAG- or HA-tagged (UniProt Q96G30); assay: co-IP
[5] = molecular target: MRAP2 lacking the polybasic motif (MRAP2 Δ38-44), N-terminally FLAG- or HA-tagged (UniProt Q96G30); assay: co-IP; remark: listed apart in the source
[6] = molecular target: MRAP2 G48L+G52L, N-terminally FLAG- or HA-tagged (UniProt Q96G30); assay: co-IP

B1: MRAP2 wild type with C-terminal LgBiT or C-terminal SmBiT, Q96G30 1-205 (protein)
chain: MSAQRLISNRTSQQSASNSDYTWEYEYYEIGPVSFEGLKAHKYSIVIGFWVGLAVFVIFMFFVLTLLTKTGAPHQDNAESSEKRFRMNSFVSDFGRPLEPDKVFSRQGNEESRSLFHCYINEVERLDRAKACHQTTALDSDVQLQEAIRSSGQPEEELNRLMKFDIPNFVNTDQNYFGEDDLLISEPPIVLETKPLSQTSHKDLD
B1 was tested, and the binding [1] was “binds”.

B2: MRAP2 Δ38-44 with C-terminal LgBiT or C-terminal SmBiT (protein, UniProt Q96G30)
chain: MSAQRLISNRTSQQSASNSDYTWEYEYYEIGPVSFEGIVIGFWVGLAVFVIFMFFVLTLLTKTGAPHQDNAESSEKRFRMNSFVSDFGRPLEPDKVFSRQGNEESRSLFHCYINEVERLDRAKACHQTTALDSDVQLQEAIRSSGQPEEELNRLMKFDIPNFVNTDQNYFGEDDLLISEPPIVLETKPLSQTSHKDLD
With B2 the binding [2] was “binds”.

B3: MRAP2 G48L+G52L with C-terminal LgBiT or C-terminal SmBiT (protein, UniProt Q96G30 1-205)
chain: MSAQRLISNRTSQQSASNSDYTWEYEYYEIGPVSFEGLKAHKYSIVILFWVLLAVFVIFMFFVLTLLTKTGAPHQDNAESSEKRFRMNSFVSDFGRPLEPDKVFSRQGNEESRSLFHCYINEVERLDRAKACHQTTALDSDVQLQEAIRSSGQPEEELNRLMKFDIPNFVNTDQNYFGEDDLLISEPPIVLETKPLSQTSHKDLD
With B3 the binding [3] was “binds”.

B4: MRAP2 lacking the polybasic motif (MRAP2 Δ38-44), N-terminally FLAG- or HA-tagged (protein, UniProt Q96G30)
chain: MSAQRLISNRTSQQSASNSDYTWEYEYYEIGPVSFEGIVIGFWVGLAVFVIFMFFVLTLLTKTGAPHQDNAESSEKRFRMNSFVSDFGRPLEPDKVFSRQGNEESRSLFHCYINEVERLDRAKACHQTTALDSDVQLQEAIRSSGQPEEELNRLMKFDIPNFVNTDQNYFGEDDLLISEPPIVLETKPLSQTSHKDLD
modifications: N-terminal asparagine residue in both glycosylated and unglycosylated forms
In the case of B4, the binding [4] is reported as “binds” and the binding [5] is reported as “binds”.

B5: MRAP2 G48L+G52L, N-terminally FLAG- or HA-tagged (protein, UniProt Q96G30 1-205)
chain: MSAQRLISNRTSQQSASNSDYTWEYEYYEIGPVSFEGLKAHKYSIVILFWVLLAVFVIFMFFVLTLLTKTGAPHQDNAESSEKRFRMNSFVSDFGRPLEPDKVFSRQGNEESRSLFHCYINEVERLDRAKACHQTTALDSDVQLQEAIRSSGQPEEELNRLMKFDIPNFVNTDQNYFGEDDLLISEPPIVLETKPLSQTSHKDLD
For B5, the binding [6] was “binds”.
